From patent US7070972
These are yes or no findings as the source states them, for the method shown. For some assays here: In cells and extracts the contact can be indirect. Some binding calls cover weakened binding; strength is not graded here.

Sequences of proteins named here, by UniProt entry; tags and fusion partners are left off. A change or cut given only in a name is not applied to a line headed by its entry.
UniProt P52333: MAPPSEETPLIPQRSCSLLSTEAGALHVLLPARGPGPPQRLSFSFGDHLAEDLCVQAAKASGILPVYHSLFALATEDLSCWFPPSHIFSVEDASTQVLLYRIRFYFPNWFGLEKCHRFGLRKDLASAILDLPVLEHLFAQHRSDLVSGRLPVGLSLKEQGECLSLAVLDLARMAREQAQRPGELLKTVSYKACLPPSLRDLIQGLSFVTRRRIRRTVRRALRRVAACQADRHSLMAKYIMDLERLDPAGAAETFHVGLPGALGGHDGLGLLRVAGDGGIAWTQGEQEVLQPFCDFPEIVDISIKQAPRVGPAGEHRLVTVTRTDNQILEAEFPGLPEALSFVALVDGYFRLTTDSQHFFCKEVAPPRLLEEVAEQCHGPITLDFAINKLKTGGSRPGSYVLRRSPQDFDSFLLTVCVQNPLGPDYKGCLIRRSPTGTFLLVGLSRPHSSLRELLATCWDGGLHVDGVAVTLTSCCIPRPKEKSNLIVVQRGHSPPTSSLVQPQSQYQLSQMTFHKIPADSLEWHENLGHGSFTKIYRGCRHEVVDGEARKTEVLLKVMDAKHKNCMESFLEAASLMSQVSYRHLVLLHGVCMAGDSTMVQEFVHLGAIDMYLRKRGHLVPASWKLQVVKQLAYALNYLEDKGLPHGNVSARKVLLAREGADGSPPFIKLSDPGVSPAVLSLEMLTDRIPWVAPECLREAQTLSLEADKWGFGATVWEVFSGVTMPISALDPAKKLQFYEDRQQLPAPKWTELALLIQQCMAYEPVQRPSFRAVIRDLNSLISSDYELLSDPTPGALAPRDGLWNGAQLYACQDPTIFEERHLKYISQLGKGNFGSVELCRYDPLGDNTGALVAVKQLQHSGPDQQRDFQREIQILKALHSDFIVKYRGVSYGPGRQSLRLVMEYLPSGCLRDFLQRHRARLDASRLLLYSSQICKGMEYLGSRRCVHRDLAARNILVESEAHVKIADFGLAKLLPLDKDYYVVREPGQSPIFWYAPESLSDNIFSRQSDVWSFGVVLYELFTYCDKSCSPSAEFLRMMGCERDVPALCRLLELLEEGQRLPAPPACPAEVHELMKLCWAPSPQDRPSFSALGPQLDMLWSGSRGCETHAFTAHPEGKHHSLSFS

Experiments:
JAK-3 protein (human) [1] = biological target: JAK-3 protein (human) (UniProt P52333); experiment: peptide competition of the γc-JAK-3 coprecipitation
JAK-3 protein (human) [2] = biological target: JAK-3 protein (human) (UniProt P52333); experiment: peptide at 140 µM competing with γc for JAK-3; anti-γc immunoprecipitation, JAK-3 Western blot

With ERTMPRIPTLKNLEDLVTE [synthetic peptide corresponding to the first 19 amino acids of the γc cytoplasmic tail (…)] the binding (JAK-3 protein (human) [1]) was “binds” and the binding (JAK-3 protein (human) [2]) was “binds”.
